This is one part of the list. Single values are uncertain, as repeats are few or missing.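 The apoptosis fraction was the count of cleaved-PARP antibody-stained nuclei relative to all DNA-stained nuclei, imaged in 1,536-well plates. Screening doses were set so most cells survived, and baseline and induced cleaved-PARP levels vary greatly across cell lines.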
system: LB2518-MEL; assay: cleaved PARP positive nuclei fraction relative to DMSO control; melanoma cells; higher = more apoptosis; conditions: library dose: low library concentration; 72 h

| Structure (SMILES) | cleaved PARP positive nuclei fraction [%] |
| --- | --- |
| Cc1cn(-c2cc(NC(=O)c3ccc(C)c(Nc4nccc(-c5cccnc5)n4)c3)cc(C(F)(F)F)c2)cn1 [nilotinib] + O=S(=O)(c1ccccc1)N(CC(F)(F)F)c1ccc(C(O)(C(F)(F)F)C(F)(F)F)cc1 [T0901317] (first compound 0.2 µM, partner dose 1.4 µM) | 61.1 |
| COc1cc([C@@H]2c3cc4c(cc3[C@@H](O[C@@H]3O[C@@H]5CO[C@@H](C)O[C@H]5[C@H](O)[C@H]3O)[C@H]3COC(=O)[C@H]23)OCO4)cc(OC)c1O [etoposide] + Cc1cc([N+](=O)[O-])ccc1NS(=O)(=O)c1cc(Cl)ccc1Cl [FH535] (first compound 0.02 µM, partner dose 1 µM) | 74.3 |
| N#CC[C@H](C1CCCC1)n1cc(-c2ncnc3[nH]ccc23)cn1 [ruxolitinib] + N#Cc1c(O)c2c(-c3ccc(-c4ccccc4O)cc3)csc2[nH]c1=O [A769662] (first compound 1 µM, partner dose 2 µM) | 59.3 |
| COc1cc([C@@H]2c3cc4c(cc3[C@@H](O[C@@H]3O[C@@H]5CO[C@@H](C)O[C@H]5[C@H](O)[C@H]3O)[C@H]3COC(=O)[C@H]23)OCO4)cc(OC)c1O [etoposide] + O=C1NC(=O)/C(=C/c2ccc(-c3ccc(F)cc3O)o2)S1 [AS252424] (first compound 0.02 µM, partner dose 1 µM) | 149 |
| COc1cc([C@@H]2c3cc4c(cc3[C@@H](O[C@@H]3O[C@@H]5CO[C@@H](C)O[C@H]5[C@H](O)[C@H]3O)[C@H]3COC(=O)[C@H]23)OCO4)cc(OC)c1O [etoposide] + CC(C)CCN1c2nc(Nc3cc(F)c(O)c(F)c3)ncc2N(C)C(=O)C1C [BID1870] (first compound 0.02 µM, partner dose 0.2 µM) | 77.8 |
| Cc1ccc(Nc2nccc(N(C)c3ccc4c(C)n(C)nc4c3)n2)cc1S(N)(=O)=O [Pazopanib] + CCN(CC)CCCCNc1ncc2cc(-c3cc(OC)cc(OC)c3)c(NC(=O)NC(C)(C)C)nc2n1 [PD173074] (first compound 0.4 µM, partner dose 0.1 µM) | 61.2 |
| Cc1cn(-c2cc(NC(=O)c3ccc(C)c(Nc4nccc(-c5cccnc5)n4)c3)cc(C(F)(F)F)c2)cn1 [nilotinib] + COc1ccc2c(c1)CCC1C2CCC2(C)C(NCCCCCCN3C(=O)C=CC3=O)CCC12 [U73122] (first compound 0.2 µM, partner dose 0.4 µM) | 126 |
| N#CC[C@H](C1CCCC1)n1cc(-c2ncnc3[nH]ccc23)cn1 [ruxolitinib] + COc1ccc2c(c1)CCC1C2CCC2(C)C(NCCCCCCN3C(=O)C=CC3=O)CCC12 [U73122] (first compound 1 µM, partner dose 0.4 µM) | 61.4 |
| CCCCCCCCCCCCCCCCCCOP(=O)([O-])OC1CC[N+](C)(C)CC1 [Perifosine] + O=C(O)C(=O)Nc1sc2c(c1C(=O)O)CCNC2 [TCS401] (first compound 0.4 µM, partner dose 1.66667 µM) | 119 |
| Cc1cn(-c2cc(NC(=O)c3ccc(C)c(Nc4nccc(-c5cccnc5)n4)c3)cc(C(F)(F)F)c2)cn1 [nilotinib] + COc1cc(N2CCC(N3CCN(C)CC3)CC2)ccc1Nc1ncc(Cl)c(Nc2ccccc2S(=O)(=O)C(C)C)n1 [NVP-TAE684] (first compound 0.2 µM, partner dose 0.08 µM) | 42.8 |
| Cc1ccc(Nc2nccc(N(C)c3ccc4c(C)n(C)nc4c3)n2)cc1S(N)(=O)=O [Pazopanib] + O=C(Nc1ccccc1)c1cc([N+](=O)[O-])ccc1Cl [GW9662] (first compound 0.4 µM, partner dose 2 µM) | 66.8 |
| O=C(Nc1cc(C(F)(F)F)cc(C(F)(F)F)c1)c1cc(Cl)ccc1O + O=C(O)C(=O)Nc1sc2c(c1C(=O)O)CCNC2 [TCS401] (first compound 0.016 µM, partner dose 1.66667 µM) | 36.6 |

system: LOXIMVI; assay: as above; conditions: library dose: low library concentration; 72 h

| Structure (SMILES) | cleaved PARP positive nuclei fraction [%] |
| --- | --- |
| Cc1cc(Nc2cc(N3CCN(C)CC3)nc(Sc3ccc(NC(=O)C4CC4)cc3)n2)n[nH]1 [Tozasertib] + N#Cc1c(O)c2c(-c3ccc(-c4ccccc4O)cc3)csc2[nH]c1=O [A769662] (first compound 0.006 µM, partner dose 2 µM) | 163 |
| O=C(Nc1cc(C(F)(F)F)cc(C(F)(F)F)c1)c1cc(Cl)ccc1O + COc1ccc(COc2ccc(Cc3cnc(N)nc3N)cc2OC)cc1 [GW2580] (first compound 0.016 µM, partner dose 1 µM) | 139 |
| O=C(/C=C/c1cccnc1)NCCCCC1CCN(C(=O)c2ccccc2)CC1 + COc1cc(N2CCC(N3CCN(C)CC3)CC2)ccc1Nc1ncc(Cl)c(Nc2ccccc2S(=O)(=O)C(C)C)n1 [NVP-TAE684] (first compound 0.01 µM, partner dose 0.08 µM) | 43 |
| N#CC[C@H](C1CCCC1)n1cc(-c2ncnc3[nH]ccc23)cn1 [ruxolitinib] + Cn1cc(/C=C2\C(=O)Nc3cccnc32)c2ccccc21 [GW441756] (first compound 1 µM, partner dose 0.4 µM) | 35.6 |
| CCCCCCCCCCCCCCCCCCOP(=O)([O-])OC1CC[N+](C)(C)CC1 [Perifosine] + Oc1nc(-c2ccc(C(F)(F)F)cc2)nc2c1CSCC2 [XAV939] (first compound 0.4 µM, partner dose 2 µM) | 94.7 |
| O=C(/C=C/c1cccnc1)NCCCCC1CCN(C(=O)c2ccccc2)CC1 + Oc1nc(-c2ccc(C(F)(F)F)cc2)nc2c1CSCC2 [XAV939] (first compound 0.01 µM, partner dose 2 µM) | 45.5 |
| Cc1ccc(Nc2nccc(N(C)c3ccc4c(C)n(C)nc4c3)n2)cc1S(N)(=O)=O [Pazopanib] + N#Cc1c(O)c2c(-c3ccc(-c4ccccc4O)cc3)csc2[nH]c1=O [A769662] (first compound 0.4 µM, partner dose 2 µM) | 179 |
| N#CC[C@H](C1CCCC1)n1cc(-c2ncnc3[nH]ccc23)cn1 [ruxolitinib] + COc1cc2ncnc(Nc3ccc(Oc4ccccc4)cc3)c2cc1OC [SrcI1] (first compound 1 µM, partner dose 2 µM) | 88.6 |
| O=C(Nc1cc(C(F)(F)F)cc(C(F)(F)F)c1)c1cc(Cl)ccc1O + CCN(CC)CCCCNc1ncc2cc(-c3cc(OC)cc(OC)c3)c(NC(=O)NC(C)(C)C)nc2n1 [PD173074] (first compound 0.016 µM, partner dose 0.1 µM) | 22.3 |
| CCCCCCCCCCCCCCCCCCOP(=O)([O-])OC1CC[N+](C)(C)CC1 [Perifosine] + COc1ccc2c(c1)CCC1C2CCC2(C)C(NCCCCCCN3C(=O)C=CC3=O)CCC12 [U73122] (first compound 0.4 µM, partner dose 0.4 µM) | 216 |
| O=c1[nH]nc(Sc2ncc([N+](=O)[O-])s2)n1-c1ccc2c(c1)OCCO2 + N#Cc1c(O)c2c(-c3ccc(-c4ccccc4O)cc3)csc2[nH]c1=O [A769662] (first compound 0.2 µM, partner dose 2 µM) | 183 |
| O=c1[nH]nc(Sc2ncc([N+](=O)[O-])s2)n1-c1ccc2c(c1)OCCO2 + COc1ccc2c(c1)CCC1C2CCC2(C)C(NCCCCCCN3C(=O)C=CC3=O)CCC12 [U73122] (first compound 0.2 µM, partner dose 0.4 µM) | 42.1 |
| N#CC[C@H](C1CCCC1)n1cc(-c2ncnc3[nH]ccc23)cn1 [ruxolitinib] + O=C(Nc1ccccc1)c1cc([N+](=O)[O-])ccc1Cl [GW9662] (first compound 1 µM, partner dose 2 µM) | 50.1 |
| O=C(/C=C/c1cccnc1)NCCCCC1CCN(C(=O)c2ccccc2)CC1 + O=c1cc(-c2cccc3c2Sc2ccccc2S3)oc(N2CCOCC2)c1 [KU55933] (first compound 0.01 µM, partner dose 1 µM) | 35.6 |
| CCCCCCCCCCCCCCCCCCOP(=O)([O-])OC1CC[N+](C)(C)CC1 [Perifosine] + Cc1cc([N+](=O)[O-])ccc1NS(=O)(=O)c1cc(Cl)ccc1Cl [FH535] (first compound 0.4 µM, partner dose 1 µM) | 101 |
| N#CC[C@H](C1CCCC1)n1cc(-c2ncnc3[nH]ccc23)cn1 [ruxolitinib] + O=S(=O)(c1ccccc1)N(CC(F)(F)F)c1ccc(C(O)(C(F)(F)F)C(F)(F)F)cc1 [T0901317] (first compound 1 µM, partner dose 1.4 µM) | 288 |
| Cc1cn(-c2cc(NC(=O)c3ccc(C)c(Nc4nccc(-c5cccnc5)n4)c3)cc(C(F)(F)F)c2)cn1 [nilotinib] + COC(=O)c1sccc1S(=O)(=O)Nc1ccc(Nc2ccccc2)cc1OC [GSK0660] (first compound 0.2 µM, partner dose 1 µM) | 85.1 |
| Cc1ccc(Nc2nccc(N(C)c3ccc4c(C)n(C)nc4c3)n2)cc1S(N)(=O)=O [Pazopanib] + O=C(O)C(=O)Nc1sc2c(c1C(=O)O)CCNC2 [TCS401] (first compound 0.4 µM, partner dose 1.66667 µM) | 94.1 |
| N#CC[C@H](C1CCCC1)n1cc(-c2ncnc3[nH]ccc23)cn1 [ruxolitinib] + COc1ccc(COc2ccc(Cc3cnc(N)nc3N)cc2OC)cc1 [GW2580] (first compound 1 µM, partner dose 1 µM) | 46.8 |

Fetched one by one from the list above, 2 records:

| Structure (SMILES) | cleaved PARP positive nuclei fraction [%] |
| --- | --- |
| O=C(/C=C/c1cccnc1)NCCCCC1CCN(C(=O)c2ccccc2)CC1 + COc1cc(N2CCC(N3CCN(C)CC3)CC2)ccc1Nc1ncc(Cl)c(Nc2ccccc2S(=O)(=O)C(C)C)n1 [NVP-TAE684] (first compound 0.01 µM, partner dose 0.08 µM) | 43 |
| O=C(Nc1cc(C(F)(F)F)cc(C(F)(F)F)c1)c1cc(Cl)ccc1O + CCN(CC)CCCCNc1ncc2cc(-c3cc(OC)cc(OC)c3)c(NC(=O)NC(C)(C)C)nc2n1 [PD173074] (first compound 0.016 µM, partner dose 0.1 µM) | 22.3 |

From the supplement of paper PMC4604168 (melanoma cell lines)
